Literature values in article PMC3873810, “Structure–Activity Relationship of Adenosine 5′-diphosphoribose at the Transient Receptor Potential Melastatin 2 (TRPM2) Channel: Rational Design of Antagonists” (Journal of Medicinal Chemistry, 2013).
pIC50: −log10 of the molar value.

Test system: TRPM2 channel
Conditions: read-out: TRPM2 inhibition IC50; cited from earlier work

| Compound | pIC50 |
| --- | --- |
| Clc1ccccc1C(c1ccccc1)(c1ccccc1)n1ccnc1 [clotrimazole] | > 5.52 |
| Clc1ccc(COC(Cn2ccnc2)c2ccc(Cl)cc2Cl)cc1 (centres unmarked) [econazole] | > 5.52 |
